{"sequences": {"note": "The chains behind the UniProt entries cited, without tags or fusion partners.", "UniProt P46937": "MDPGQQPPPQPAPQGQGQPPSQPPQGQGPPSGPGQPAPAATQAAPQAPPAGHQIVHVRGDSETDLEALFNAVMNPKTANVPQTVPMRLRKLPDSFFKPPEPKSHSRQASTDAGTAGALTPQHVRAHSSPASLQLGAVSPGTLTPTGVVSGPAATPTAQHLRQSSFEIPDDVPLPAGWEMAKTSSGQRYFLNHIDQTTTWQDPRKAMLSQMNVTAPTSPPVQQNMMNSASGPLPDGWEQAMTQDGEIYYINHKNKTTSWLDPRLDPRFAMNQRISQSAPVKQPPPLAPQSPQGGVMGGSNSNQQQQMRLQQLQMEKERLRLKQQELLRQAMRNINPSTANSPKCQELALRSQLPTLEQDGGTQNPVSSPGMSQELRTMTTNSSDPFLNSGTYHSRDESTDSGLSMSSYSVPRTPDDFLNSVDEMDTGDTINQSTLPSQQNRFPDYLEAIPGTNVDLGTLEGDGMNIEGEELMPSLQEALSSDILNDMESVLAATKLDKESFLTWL"}, "source": "paper PMC11090944", "key": {"[1]": {"molecular_target": "T1, Cancer/testis antigen-45A1 (CT45A1) (human) (UniProt Q5HYN5)", "T1 sequence": "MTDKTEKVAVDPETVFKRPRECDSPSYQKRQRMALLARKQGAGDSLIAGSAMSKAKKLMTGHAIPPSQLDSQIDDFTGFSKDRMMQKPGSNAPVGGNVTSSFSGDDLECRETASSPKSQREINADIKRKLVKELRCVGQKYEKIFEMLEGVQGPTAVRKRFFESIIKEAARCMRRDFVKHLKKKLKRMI", "assay": "pull-down; pull-down assay (Fig. 6K); format not told"}, "[2]": {"molecular_target": "T1, Cancer/testis antigen-45A1 (CT45A1) (human)", "assay": "co-IP; 400 ul cervical cancer cell lysate with primary monoclonal antibody (1:500) or normal IgG at 4 C for 4 h, then magnetic A/G beads at 4 C overnight; detection by western blotting"}}, "note": "No constants are given. Whether binding was seen depends on the method and setting. Binding seen in cells or lysates may run through a third protein. Some binding calls cover weakened binding; strength is not graded here.", "data": [{"substance": "Yes-associated protein (YAP) (from UniProt P46937 1-504)", "values": [{"measurement": "binding", "setting": "[1]", "result": "binds"}, {"measurement": "binding", "setting": "[2]", "result": "binds"}]}]}
